Source: publication PMC7022808
These are yes or no findings as the source states them, for the method shown. Some results given as binding are weak or reduced against the parent protein; the word gives no strength.

Amino acid sequences for entries named in this document (tags omitted).
UniProt P26465: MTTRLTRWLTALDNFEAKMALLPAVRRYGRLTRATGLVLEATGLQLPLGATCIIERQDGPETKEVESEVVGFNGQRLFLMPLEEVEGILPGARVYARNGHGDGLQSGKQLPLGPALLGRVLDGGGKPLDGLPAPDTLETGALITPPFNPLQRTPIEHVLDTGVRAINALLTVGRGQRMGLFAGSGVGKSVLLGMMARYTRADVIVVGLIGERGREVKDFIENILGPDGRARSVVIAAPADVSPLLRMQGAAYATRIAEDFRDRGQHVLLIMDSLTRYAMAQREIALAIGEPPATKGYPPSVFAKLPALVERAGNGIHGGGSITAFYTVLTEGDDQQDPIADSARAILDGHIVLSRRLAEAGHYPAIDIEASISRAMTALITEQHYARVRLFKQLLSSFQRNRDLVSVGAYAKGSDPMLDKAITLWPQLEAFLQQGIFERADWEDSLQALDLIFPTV

Columns and labels:
[1] = biological target: FliH (Salmonella typhimurium) (UniProt P15934); assay: co-purification; FliH co-expressed with His-FliI from one plasmid; purified as a complex by the method of ref. 29, steps not told here
[2] = biological target: FliI ATPase (Salmonella typhimurium) (UniProt P26465); assay: as above

B1: FliH (protein, UniProt P15934 1-235)
chain: MSNELPWQVWTPDDLAPPPETFVPVEADNVTLTEDTPEPELTAEQQLEQELAQLKIQAHEQGYNAGLAEGRQKGHAQGYQEGLAQGLEQGQAQAQTQQAPIHARMQQLVSEFQNTLDALDSVIASRLMQMALEAARQVIGQTPAVDNSALIKQIQQLLQQEPLFSGKPQLRVHPDDLQRVEEMLGATLSLHGWRLRGDPTLHHGGCKVSADEGDLDASVATRWQELCRLAAPGVL
Question: For B1, which binding [1] is on record?
Answer: binds

Question: What about the binding [2] of the same binder?
Answer: binds
